According to the M2OR odorant receptor database:
This is a selection; strong and weak results do not stand in their true shares. The calls were merged from several studies; some rest on single wells. The list shows a part of the results.

Each compound was assayed against T1, OR52A5 (Homo sapiens) (UniProt Q9H2C5). Settings: stereoisomer not certain.
T1 sequence (whole entry): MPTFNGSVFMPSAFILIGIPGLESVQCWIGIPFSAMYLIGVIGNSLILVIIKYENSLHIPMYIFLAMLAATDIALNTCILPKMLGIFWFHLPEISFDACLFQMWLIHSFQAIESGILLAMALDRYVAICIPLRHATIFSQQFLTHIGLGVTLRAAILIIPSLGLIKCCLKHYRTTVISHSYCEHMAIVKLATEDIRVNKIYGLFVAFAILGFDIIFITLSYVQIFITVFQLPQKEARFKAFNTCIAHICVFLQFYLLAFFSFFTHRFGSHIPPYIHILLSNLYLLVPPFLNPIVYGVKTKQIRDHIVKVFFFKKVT
How it was run: (§1)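 Values were gathered from published papers (main text and supplementary material), with extra details requested from the original authors when needed, and checked for typos and inconsistencies. Each receptor–molecule pair is called responsive (active) if the original authors judged the measured signal statistically different from baseline, and non-responsive (inactive) otherwise. Assay methods varied by source, often transient mammalian cell-line luciferase assays. Recorded details include cell line, G-protein, co-transfected protein and tags.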
With `CC1CCC(C(C)C)C(O)C1` (stereo not given) the “odorant receptor agonist call” value was “inactive”. With `CC12C=CCC1C1CCC3CC(=O)CCC3(C)C1CC2` (stereo not given) the “odorant receptor agonist call” value was “inactive”. `CC12C=CCC1C1CCC3=CC(=O)CCC3(C)C1CC2` (stereo not given) was tested, and the “odorant receptor agonist call” value was “inactive”. In the case of `CCCCO`, the “odorant receptor agonist call” value is reported as “inactive”. With `CCCCCCCC=CC=O` the “odorant receptor agonist call” value was “inactive”. In the case of `C=C(C)C1CCC2=CC(=O)CC(C)C2(C)C1` (stereo not given), the “odorant receptor agonist call” value is reported as “inactive”. `CC(=O)OC1CC2CCC1(C)C2(C)C` (stereo not given) was tested, and the “odorant receptor agonist call” value was “inactive”. In the case of `CC(C)(O)CCCC1=CCC(C=O)CC1` (stereo not given), the “odorant receptor agonist call” value is reported as “inactive”. For `CCCCCCCCCCC=O`, the “odorant receptor agonist call” value was “inactive”. With `C=CC(C)(O)CCC=C(C)C` (stereo not given) the “odorant receptor agonist call” value was “inactive”. `O=C1CCCCCCCCCCCC(=O)OCCO1` was tested, and the “odorant receptor agonist call” value was “active”. For `CC=Cc1ccc(O)c(OC)c1`, the “odorant receptor agonist call” value was “active”. `CCCCCOC(C)=O` was tested, and the “odorant receptor agonist call” value was “inactive”. `CC12CCC(CC1)C(C)(C)O2` was tested, and the “odorant receptor agonist call” value was “inactive”. For `CCCCCCOC(=O)CCC`, the “odorant receptor agonist call” value was “inactive”. With `CCCCCCCCCC=O` the “odorant receptor agonist call” value was “inactive”. For `O=C1CCCCCCCCCCCCCCO1`, the “odorant receptor agonist call” value was “inactive”. In the case of `CC(C)CC(=O)O`, the “odorant receptor agonist call” value is reported as “inactive”. With `CC1COCc2cc3c(cc21)C(C)(C)C(C)C3(C)C` (stereo not given) the “odorant receptor agonist call” value was “active”.

These compounds were tested against T2, OR52B4 (Homo sapiens) (UniProt Q8NGK2). Settings: stereoisomer not certain.
T2 sequence (whole entry): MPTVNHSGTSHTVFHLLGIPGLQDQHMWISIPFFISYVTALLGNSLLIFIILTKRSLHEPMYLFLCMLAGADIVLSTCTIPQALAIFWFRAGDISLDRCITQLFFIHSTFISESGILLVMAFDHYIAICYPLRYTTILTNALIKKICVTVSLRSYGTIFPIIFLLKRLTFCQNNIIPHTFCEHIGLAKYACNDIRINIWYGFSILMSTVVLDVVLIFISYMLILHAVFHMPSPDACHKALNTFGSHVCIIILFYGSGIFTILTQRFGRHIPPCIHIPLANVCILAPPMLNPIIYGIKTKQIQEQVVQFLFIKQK
How it was run: as §1
In the case of `CC1CCC(C(C)C)C(O)C1` (stereo not given), the “odorant receptor agonist call” value is reported as “active”. For `CC12C=CCC1C1CCC3CC(=O)CCC3(C)C1CC2` (stereo not given), the “odorant receptor agonist call” value was “inactive”. In the case of `CCCCCC(C)=O`, the “odorant receptor agonist call” value is reported as “inactive”. For `CC(=O)c1ccccc1`, the “odorant receptor agonist call” value was “inactive”. `CC12C=CCC1C1CCC3=CC(=O)CCC3(C)C1CC2` (stereo not given) was tested, and the “odorant receptor agonist call” value was “inactive”. In the case of `CCCCO`, the “odorant receptor agonist call” value is reported as “inactive”. For `CCCCCCCC=CC=O`, the “odorant receptor agonist call” value was “inactive”. In the case of `COC(=O)c1ccccc1`, the “odorant receptor agonist call” value is reported as “inactive”. `CC(=O)OC1CC2CCC1(C)C2(C)C` (stereo not given) was tested, and the “odorant receptor agonist call” value was “inactive”. `CCCCCCCCCCC=O` was tested, and the “odorant receptor agonist call” value was “inactive”. In the case of `C=CC(C)(O)CCC=C(C)C` (stereo not given), the “odorant receptor agonist call” value is reported as “inactive”. With `O=C1CCCCCCCCCCCC(=O)OCCO1` the “odorant receptor agonist call” value was “inactive”. `CC=Cc1ccc(O)c(OC)c1` was tested, and the “odorant receptor agonist call” value was “inactive”. For `CCCCCOC(C)=O`, the “odorant receptor agonist call” value was “inactive”. With `O=C1CCCCC1` the “odorant receptor agonist call” value was “inactive”. With `CC12CCC(CC1)C(C)(C)O2` the “odorant receptor agonist call” value was “inactive”. `CCCCCCOC(=O)CCC` was tested, and the “odorant receptor agonist call” value was “inactive”. In the case of `CCCCCCCCCC=O`, the “odorant receptor agonist call” value is reported as “inactive”. In the case of `CC1=NC(C)SC1C` (stereo not given), the “odorant receptor agonist call” value is reported as “inactive”. For `O=C1CCCCCCCCCCCCCCO1`, the “odorant receptor agonist call” value was “inactive”. With `CC(C)CC(=O)O` the “odorant receptor agonist call” value was “inactive”. With `CC1COCc2cc3c(cc21)C(C)(C)C(C)C3(C)C` (stereo not given) the “odorant receptor agonist call” value was “active”.

The compounds below were run against T3, OR52D1 (Homo sapiens) (UniProt Q9H346). Settings: stereoisomer not certain.
T3 sequence (whole entry): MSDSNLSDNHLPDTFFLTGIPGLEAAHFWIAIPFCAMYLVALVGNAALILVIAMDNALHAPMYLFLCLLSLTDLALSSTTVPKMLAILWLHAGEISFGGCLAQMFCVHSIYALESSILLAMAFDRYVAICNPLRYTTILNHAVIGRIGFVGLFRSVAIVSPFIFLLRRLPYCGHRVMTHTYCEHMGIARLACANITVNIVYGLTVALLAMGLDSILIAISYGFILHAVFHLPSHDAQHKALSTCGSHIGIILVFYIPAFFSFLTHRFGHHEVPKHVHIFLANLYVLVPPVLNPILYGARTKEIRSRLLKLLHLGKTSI
How it was run: as §1
With `CC1CCC(C(C)C)C(O)C1` (stereo not given) the “odorant receptor agonist call” value was “inactive”. `CCCCCC(C)=O` was tested, and the “odorant receptor agonist call” value was “inactive”. With `CC(=O)c1ccccc1` the “odorant receptor agonist call” value was “active”. For `CC12C=CCC1C1CCC3=CC(=O)CCC3(C)C1CC2` (stereo not given), the “odorant receptor agonist call” value was “inactive”. `CCCCO` was tested, and the “odorant receptor agonist call” value was “inactive”. `CCCCCCC=O` was tested, and the “odorant receptor agonist call” value was “inactive”. For `CCCCCCCC=CC=O`, the “odorant receptor agonist call” value was “inactive”. With `COC(=O)c1ccccc1` the “odorant receptor agonist call” value was “inactive”. `CCCCCCCCC=O` was tested, and the “odorant receptor agonist call” value was “inactive”. `CC(=O)OC1CC2CCC1(C)C2(C)C` (stereo not given) was tested, and the “odorant receptor agonist call” value was “inactive”. In the case of `CC(C)(O)CCCC1=CCC(C=O)CC1` (stereo not given), the “odorant receptor agonist call” value is reported as “inactive”. With `CCCCCCCCCCC=O` the “odorant receptor agonist call” value was “inactive”. For `C=CC(C)(O)CCC=C(C)C` (stereo not given), the “odorant receptor agonist call” value was “inactive”. In the case of `O=C1CCCCCCCCCCCC(=O)OCCO1`, the “odorant receptor agonist call” value is reported as “inactive”. `CC=Cc1ccc(O)c(OC)c1` was tested, and the “odorant receptor agonist call” value was “inactive”. `CCCCCOC(C)=O` was tested, and the “odorant receptor agonist call” value was “inactive”. For `O=C1CCCCC1`, the “odorant receptor agonist call” value was “active”. `CC12CCC(CC1)C(C)(C)O2` was tested, and the “odorant receptor agonist call” value was “inactive”. In the case of `CCCCCCOC(=O)CCC`, the “odorant receptor agonist call” value is reported as “inactive”. With `CCCCCCCCCC=O` the “odorant receptor agonist call” value was “active”. `CC1=NC(C)SC1C` (stereo not given) was tested, and the “odorant receptor agonist call” value was “inactive”. In the case of `O=C1CCCCCCCCCCCCCCO1`, the “odorant receptor agonist call” value is reported as “inactive”. In the case of `CC(C)CC(=O)O`, the “odorant receptor agonist call” value is reported as “active”. In the case of `CC1COCc2cc3c(cc21)C(C)(C)C(C)C3(C)C` (stereo not given), the “odorant receptor agonist call” value is reported as “inactive”.
